In brackets after ≈: the same amount, converted by molar mass.

Experimental findings from ChEMBL document CHEMBL5352460, “Antibacterial activity evaluation of pleuromutilin derivatives with 4(3H)-quinazolinone scaffold against methicillin-resistant Staphylococcusaureus” (Eur J Med Chem, 2023) are described below.

In the assay the test system is Escherichia coli. In words: microbe, parasite or virus in culture. It counts as functional. Particulars: ATCC25922, time 20 hrs.

On to `C=C[C@]1(C)C[C@@H](OC(=O)CSc2nc3[nH]ccc3c(=O)[nH]2)[C@]2(C)[C@H](C)CC[C@]3(CCC(=O)[C@H]32)[C@@H](C)[C@@H]1O`, for which the MIC came to 32 µg/mL (≈ 60.6 µM).
